The list shows a part of the results. Residues, ends and D or L forms follow the SMILES beside them. *: point of attachment. Cbz = O=C(OCc1ccccc1)*
Assays:
Assay in all cases: log2 fold change, soluble protein after heating vs DMSO (PISA); higher = thermal stabilisation; K562 cells, 10 uM, 30 min; active = over 0.2 and 3.5 SD of the protein, either way, in both replicates (recomputed)
IRAK-1-4 Inhibitor I = compound: C1COCCN1CCN2C3=CC=CC=C3N=C2NC(=O)C4=CC(=CC=C4)[N+](=O)[O-] [IRAK-1-4 Inhibitor I]
Procedure, shortened: (§1)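 Quantification of soluble protein used TMTpro 16plex LC-MS/MS, with channel sums equalised. Samples were the supernatant after 21,000xg for 90 min of pooled aliquots from K562 cells (2×10^6 cells/mL) treated with 10 μM compound for 30 min, heated for 3 min over 48°C-58°C, and extracted in PBS with 0.5% NP-40 at 4°C. Values, from duplicates, describe thermal stability against control samples on a log2 fold-change scale.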

Protein sequences, listed by entry. Tags and fused reporters are not part of them. Lines headed by an entry give the natural chain unless they say otherwise; changes in a name come on top.
UniProt Q12770: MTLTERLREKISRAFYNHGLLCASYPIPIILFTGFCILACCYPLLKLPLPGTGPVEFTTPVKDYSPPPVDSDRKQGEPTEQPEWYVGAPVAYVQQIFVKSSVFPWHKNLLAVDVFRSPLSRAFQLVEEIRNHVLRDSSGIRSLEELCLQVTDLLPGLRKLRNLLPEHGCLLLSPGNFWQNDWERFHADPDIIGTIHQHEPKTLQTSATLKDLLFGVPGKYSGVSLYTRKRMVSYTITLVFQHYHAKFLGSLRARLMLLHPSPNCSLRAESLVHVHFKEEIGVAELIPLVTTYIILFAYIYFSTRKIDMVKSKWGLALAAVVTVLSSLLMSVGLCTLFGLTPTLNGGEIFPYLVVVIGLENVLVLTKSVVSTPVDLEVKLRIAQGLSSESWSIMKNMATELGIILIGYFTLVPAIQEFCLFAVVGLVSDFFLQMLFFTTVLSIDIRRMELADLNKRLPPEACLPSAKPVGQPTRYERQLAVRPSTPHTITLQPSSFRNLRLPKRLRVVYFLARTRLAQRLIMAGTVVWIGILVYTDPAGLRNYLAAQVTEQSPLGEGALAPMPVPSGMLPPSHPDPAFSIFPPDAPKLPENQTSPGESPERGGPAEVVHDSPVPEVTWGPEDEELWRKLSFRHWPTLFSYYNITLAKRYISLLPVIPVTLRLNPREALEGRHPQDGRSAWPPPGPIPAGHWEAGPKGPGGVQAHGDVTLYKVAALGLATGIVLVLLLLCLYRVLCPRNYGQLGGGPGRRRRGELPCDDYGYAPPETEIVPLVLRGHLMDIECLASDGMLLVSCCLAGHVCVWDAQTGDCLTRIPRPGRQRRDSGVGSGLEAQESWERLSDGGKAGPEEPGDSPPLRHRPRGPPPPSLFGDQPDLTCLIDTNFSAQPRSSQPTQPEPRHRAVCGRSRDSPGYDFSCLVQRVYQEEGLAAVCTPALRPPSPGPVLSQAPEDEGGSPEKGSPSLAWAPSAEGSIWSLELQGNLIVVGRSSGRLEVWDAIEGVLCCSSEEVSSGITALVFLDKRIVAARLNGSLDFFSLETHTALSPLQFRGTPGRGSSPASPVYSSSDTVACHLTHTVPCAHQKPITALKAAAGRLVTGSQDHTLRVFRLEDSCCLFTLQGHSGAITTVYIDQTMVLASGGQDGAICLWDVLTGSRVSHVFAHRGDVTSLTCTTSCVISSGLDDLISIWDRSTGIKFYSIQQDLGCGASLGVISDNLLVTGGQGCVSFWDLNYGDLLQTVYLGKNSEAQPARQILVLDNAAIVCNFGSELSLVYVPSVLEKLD
UniProt Q0VDG4: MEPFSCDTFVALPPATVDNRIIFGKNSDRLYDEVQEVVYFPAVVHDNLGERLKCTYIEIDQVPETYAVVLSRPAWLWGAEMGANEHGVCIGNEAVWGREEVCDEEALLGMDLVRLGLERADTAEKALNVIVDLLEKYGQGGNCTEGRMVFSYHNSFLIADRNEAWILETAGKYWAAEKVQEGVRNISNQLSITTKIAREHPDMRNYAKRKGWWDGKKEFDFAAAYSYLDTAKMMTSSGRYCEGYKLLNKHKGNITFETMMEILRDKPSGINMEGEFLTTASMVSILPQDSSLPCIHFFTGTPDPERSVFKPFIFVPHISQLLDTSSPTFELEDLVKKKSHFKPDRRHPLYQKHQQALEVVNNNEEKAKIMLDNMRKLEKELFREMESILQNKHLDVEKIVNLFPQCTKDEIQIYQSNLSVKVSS
UniProt Q9Y3A5: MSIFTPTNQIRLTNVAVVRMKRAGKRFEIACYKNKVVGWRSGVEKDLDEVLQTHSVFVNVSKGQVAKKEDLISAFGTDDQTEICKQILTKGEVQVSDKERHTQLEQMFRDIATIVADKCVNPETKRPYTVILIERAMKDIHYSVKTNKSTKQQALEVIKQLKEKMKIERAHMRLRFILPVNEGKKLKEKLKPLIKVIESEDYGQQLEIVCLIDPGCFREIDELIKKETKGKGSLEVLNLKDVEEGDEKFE
UniProt P22307: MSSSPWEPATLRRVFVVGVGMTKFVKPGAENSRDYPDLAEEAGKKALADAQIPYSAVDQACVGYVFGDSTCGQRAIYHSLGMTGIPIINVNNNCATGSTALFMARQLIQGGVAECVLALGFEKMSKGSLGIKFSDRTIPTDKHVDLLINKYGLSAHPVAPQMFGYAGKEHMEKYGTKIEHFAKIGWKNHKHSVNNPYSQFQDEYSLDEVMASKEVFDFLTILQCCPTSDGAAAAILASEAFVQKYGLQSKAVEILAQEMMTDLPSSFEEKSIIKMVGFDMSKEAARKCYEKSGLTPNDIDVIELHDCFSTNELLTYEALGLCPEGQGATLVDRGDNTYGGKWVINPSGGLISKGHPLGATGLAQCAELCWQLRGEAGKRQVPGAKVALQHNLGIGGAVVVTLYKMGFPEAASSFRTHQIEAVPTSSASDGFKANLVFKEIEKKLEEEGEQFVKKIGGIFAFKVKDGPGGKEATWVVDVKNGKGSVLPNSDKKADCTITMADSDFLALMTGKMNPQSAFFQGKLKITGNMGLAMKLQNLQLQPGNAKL
UniProt Q9Y224: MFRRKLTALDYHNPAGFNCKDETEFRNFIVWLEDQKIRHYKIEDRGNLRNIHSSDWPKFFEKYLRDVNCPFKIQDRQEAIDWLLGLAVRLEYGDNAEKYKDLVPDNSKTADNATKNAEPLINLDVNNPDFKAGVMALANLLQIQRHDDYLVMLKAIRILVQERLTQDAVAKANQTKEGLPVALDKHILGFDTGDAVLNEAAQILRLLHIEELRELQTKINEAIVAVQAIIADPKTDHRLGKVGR
UniProt Q6IQ49: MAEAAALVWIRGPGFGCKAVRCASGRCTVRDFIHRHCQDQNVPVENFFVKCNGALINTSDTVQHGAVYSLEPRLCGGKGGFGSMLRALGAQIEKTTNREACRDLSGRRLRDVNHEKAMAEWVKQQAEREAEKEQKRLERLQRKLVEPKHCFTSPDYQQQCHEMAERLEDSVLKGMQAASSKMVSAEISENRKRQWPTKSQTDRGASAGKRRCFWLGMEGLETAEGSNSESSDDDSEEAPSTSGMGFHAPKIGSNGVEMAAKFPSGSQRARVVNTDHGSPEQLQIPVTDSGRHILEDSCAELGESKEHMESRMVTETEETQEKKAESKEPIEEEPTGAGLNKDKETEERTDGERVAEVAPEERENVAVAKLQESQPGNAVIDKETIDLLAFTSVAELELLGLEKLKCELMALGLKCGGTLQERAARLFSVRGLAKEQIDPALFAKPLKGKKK
UniProt Q9NQC3: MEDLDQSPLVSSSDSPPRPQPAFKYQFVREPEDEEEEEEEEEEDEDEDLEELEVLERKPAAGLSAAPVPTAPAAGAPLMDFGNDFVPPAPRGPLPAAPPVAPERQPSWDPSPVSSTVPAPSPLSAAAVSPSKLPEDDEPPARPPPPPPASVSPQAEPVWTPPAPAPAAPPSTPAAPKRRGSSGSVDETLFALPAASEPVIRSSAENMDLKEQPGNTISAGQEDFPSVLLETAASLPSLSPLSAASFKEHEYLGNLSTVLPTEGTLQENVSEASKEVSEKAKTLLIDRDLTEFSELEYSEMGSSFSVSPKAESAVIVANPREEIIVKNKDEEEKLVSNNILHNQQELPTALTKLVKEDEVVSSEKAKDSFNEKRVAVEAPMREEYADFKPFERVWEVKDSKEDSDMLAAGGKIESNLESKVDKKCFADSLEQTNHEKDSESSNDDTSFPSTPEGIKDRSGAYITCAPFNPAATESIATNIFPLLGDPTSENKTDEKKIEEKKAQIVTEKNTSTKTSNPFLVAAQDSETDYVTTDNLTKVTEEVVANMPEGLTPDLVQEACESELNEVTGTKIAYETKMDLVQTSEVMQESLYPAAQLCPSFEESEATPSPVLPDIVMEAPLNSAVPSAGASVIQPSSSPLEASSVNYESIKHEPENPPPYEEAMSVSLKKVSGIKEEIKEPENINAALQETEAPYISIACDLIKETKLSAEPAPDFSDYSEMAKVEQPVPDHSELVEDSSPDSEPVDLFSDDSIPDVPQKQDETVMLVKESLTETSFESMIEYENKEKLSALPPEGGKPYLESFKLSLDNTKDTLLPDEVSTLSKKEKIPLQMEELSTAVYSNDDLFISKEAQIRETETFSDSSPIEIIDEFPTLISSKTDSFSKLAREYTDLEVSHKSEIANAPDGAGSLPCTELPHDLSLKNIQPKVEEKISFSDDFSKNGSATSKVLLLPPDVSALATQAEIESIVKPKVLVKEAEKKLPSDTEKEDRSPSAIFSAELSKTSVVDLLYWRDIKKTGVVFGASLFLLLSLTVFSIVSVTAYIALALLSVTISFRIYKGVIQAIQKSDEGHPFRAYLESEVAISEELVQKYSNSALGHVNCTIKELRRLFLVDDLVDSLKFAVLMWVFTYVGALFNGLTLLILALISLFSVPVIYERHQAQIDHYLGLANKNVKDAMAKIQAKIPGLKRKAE
UniProt Q9NR31: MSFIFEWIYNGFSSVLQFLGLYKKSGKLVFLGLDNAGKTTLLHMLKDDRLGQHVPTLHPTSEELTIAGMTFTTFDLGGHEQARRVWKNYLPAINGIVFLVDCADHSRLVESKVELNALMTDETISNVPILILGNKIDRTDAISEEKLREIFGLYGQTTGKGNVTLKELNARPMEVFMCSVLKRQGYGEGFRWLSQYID
UniProt Q15424: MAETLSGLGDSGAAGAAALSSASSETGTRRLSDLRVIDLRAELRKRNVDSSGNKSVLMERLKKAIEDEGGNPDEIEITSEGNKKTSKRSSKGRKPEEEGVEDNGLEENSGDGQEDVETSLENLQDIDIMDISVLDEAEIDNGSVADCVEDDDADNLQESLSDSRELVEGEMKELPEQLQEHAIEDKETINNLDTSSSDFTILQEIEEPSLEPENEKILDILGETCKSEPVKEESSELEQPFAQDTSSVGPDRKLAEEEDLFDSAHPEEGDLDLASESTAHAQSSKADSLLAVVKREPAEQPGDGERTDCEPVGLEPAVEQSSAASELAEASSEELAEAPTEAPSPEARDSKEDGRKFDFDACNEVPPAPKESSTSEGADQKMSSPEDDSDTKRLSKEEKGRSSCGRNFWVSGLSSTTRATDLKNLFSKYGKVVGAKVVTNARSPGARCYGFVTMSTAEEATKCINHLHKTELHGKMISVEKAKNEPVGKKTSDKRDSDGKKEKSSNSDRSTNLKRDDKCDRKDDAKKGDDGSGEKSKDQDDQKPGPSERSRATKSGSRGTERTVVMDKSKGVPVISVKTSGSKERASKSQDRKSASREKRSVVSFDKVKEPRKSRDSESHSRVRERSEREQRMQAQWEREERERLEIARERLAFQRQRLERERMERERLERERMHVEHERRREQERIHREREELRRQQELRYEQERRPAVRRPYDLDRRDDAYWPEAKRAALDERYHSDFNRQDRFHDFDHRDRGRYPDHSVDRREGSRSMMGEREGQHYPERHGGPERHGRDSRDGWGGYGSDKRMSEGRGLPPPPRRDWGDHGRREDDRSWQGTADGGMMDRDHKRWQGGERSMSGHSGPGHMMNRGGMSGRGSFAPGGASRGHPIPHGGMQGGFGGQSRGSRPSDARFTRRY
UniProt Q9Y6B6: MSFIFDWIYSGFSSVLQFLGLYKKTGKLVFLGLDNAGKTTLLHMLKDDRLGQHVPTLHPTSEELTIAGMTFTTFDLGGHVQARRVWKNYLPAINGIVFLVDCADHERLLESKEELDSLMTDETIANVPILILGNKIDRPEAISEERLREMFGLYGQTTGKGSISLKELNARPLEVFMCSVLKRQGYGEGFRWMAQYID
UniProt O75880: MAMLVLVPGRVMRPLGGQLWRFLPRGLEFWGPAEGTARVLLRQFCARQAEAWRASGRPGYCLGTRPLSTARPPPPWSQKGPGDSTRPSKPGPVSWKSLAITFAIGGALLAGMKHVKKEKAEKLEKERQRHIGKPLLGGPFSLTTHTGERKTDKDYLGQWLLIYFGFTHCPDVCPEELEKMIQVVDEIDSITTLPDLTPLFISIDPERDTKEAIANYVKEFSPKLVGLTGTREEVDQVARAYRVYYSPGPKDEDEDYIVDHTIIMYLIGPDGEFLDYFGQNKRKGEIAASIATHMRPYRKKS
UniProt Q9HCN8: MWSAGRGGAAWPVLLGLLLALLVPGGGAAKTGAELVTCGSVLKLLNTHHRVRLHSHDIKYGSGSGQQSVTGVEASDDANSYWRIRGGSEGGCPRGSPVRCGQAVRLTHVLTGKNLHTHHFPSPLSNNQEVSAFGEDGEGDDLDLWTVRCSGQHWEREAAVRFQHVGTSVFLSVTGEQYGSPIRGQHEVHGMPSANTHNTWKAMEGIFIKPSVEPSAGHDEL
UniProt P25815: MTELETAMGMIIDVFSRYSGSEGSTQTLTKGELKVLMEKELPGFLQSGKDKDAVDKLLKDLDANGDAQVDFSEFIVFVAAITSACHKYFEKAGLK
UniProt Q8N488: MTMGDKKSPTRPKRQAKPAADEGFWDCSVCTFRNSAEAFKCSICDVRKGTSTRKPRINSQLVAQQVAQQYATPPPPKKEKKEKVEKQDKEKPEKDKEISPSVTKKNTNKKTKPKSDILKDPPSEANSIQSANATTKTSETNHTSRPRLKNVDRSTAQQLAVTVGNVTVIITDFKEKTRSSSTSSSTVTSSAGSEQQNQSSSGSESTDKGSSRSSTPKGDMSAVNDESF

ibrutinib = compound: C=CC(=O)N1CCC[C@@H](n2nc(-c3ccc(Oc4ccccc4)cc3)c3c(N)ncnc32)C1 [ibrutinib]
Procedure, shortened: as §1

[1] = compound: CC(=O)c1cnc2ccc(-c3cc(Cl)c(O)c(Cl)c3)nc2c1N[C@H]1CC[C@H](CN(C)C)CC1
Procedure, shortened: as §1

ralimetinib = compound: CC(C)(C)Cn1c(N)nc2ccc(-c3[nH]c(C(C)(C)C)nc3-c3ccc(F)cc3)nc21 [ralimetinib]
Procedure, shortened: as §1

[2] = compound: CC(C)(O)CC(=O)NCCn1ccc2ncnc(Nc3ccc(Oc4cccc(C(F)(F)F)c4)c(Cl)c3)c21
Procedure, shortened: as §1

[3] = compound: CC(C)C1=C2N=C(C=C(N2N=C1)NCC3=CC=CC=C3)NCCCCCCN
Procedure, shortened: as §1

[4] = compound: CC(C)C[C@@H](C=O)NC(=O)[C@H](CC(C)C)NC(=O)[C@H](CC(C)C)NC(=O)OCc1ccccc1
Procedure, shortened: as §1

pinometostat = compound: CC(C)N(C[C@H]1O[C@@H](n2cnc3c(N)ncnc32)[C@H](O)[C@@H]1O)[C@H]1C[C@@H](CCc2nc3cc(C(C)(C)C)ccc3[nH]2)C1 [pinometostat]
Procedure, shortened: as §1

[5] = compound: CC1=C(C(CC(=O)N1)C2=CC=C(C=C2)C(F)(F)F)C(=O)NC3=C(C=C4C(=C3)C=NN4)F
Procedure, shortened: as §1

[6] = compound: CC1=C(C2=C(C=C1)C(=O)C3=CC=CC=C3N2CCCN)C
Procedure, shortened: as §1

[7] = compound: CC1=C(C=C(C=C1)NC(=O)C2=CC(=CC=C2)C(C)(C)C#N)NC3=CC4=C(C=C3)N=CN(C4=O)C
Procedure, shortened: as §1

[8] = compound: CC1=C(C=C(C=C1)NC(=O)C2=CC(=CC=C2)N(C)C)NC(=O)C3=CC=C(C=C3)O
Procedure, shortened: as §1

[9] = compound: CC1=CC=C(C=C1)SC2=C3C=C(SC3=CN=C2)C(=O)N
Procedure, shortened: as §1

[10] = compound: CC1=NC(=CC=C1)C2=C(N=C(N2)C(C)(C)C)C3=CC4=NC=CN=C4C=C3
Procedure, shortened: as §1

Nexturastat A = compound: CCCCN(Cc1ccc(C(=O)NO)cc1)C(=O)Nc1ccccc1 [Nexturastat A]
Procedure, shortened: as §1

vemurafenib = compound: CCCS(=O)(=O)Nc1ccc(F)c(C(=O)c2c[nH]c3ncc(-c4ccc(Cl)cc4)cc23)c1F [vemurafenib]
Procedure, shortened: as §1

[11] = compound: CCCS(=O)(=O)Nc1ccc(F)c(C(=O)c2c[nH]c3ncc(Cl)cc23)c1F
Procedure, shortened: as §1

[12] = compound: CCCc1cc(C)[nH]c(=O)c1CNC(=O)c1cc(-c2ccnc(N3CCN(C)CC3)c2)cc2c1cnn2C(C)C
Procedure, shortened: as §1

givinostat = compound: CCN(CC)Cc1ccc2cc(COC(=O)Nc3ccc(C(=O)NO)cc3)ccc2c1 [givinostat]
Procedure, shortened: as §1

barasertib = compound: CCN(CCCOc1ccc2c(Nc3cc(CC(=O)Nc4cccc(F)c4)[nH]n3)ncnc2c1)CCOP(=O)(O)O [barasertib]
Procedure, shortened: as §1

Measured: log2 fold change

SCAP (UniProt Q12770)
inactive: IRAK-1-4 Inhibitor I -0.004 | ibrutinib -0.106 | [1] -0.034 | ralimetinib -0.059 | [2] -0.062 | [3] -0.164 | [4] -0.029 | pinometostat -0.016 | [5] 0.022 | [6] 0.019 | [7] -0.023 | [8] 0.012 | [9] 0.041 | [10] 0.048 | Nexturastat A -0.005 | vemurafenib 0.062 | [11] -0.056 | [12] -0.022 | givinostat -0.013 | barasertib -0.005

SCRN3 (UniProt Q0VDG4)
inactive: IRAK-1-4 Inhibitor I 0.051 | ibrutinib 0.018 | [1] 0.002 | ralimetinib 0.023 | [2] -0.04 | [3] 0.021 | [4] -0.003 | pinometostat -0.032 | [5] -0.001 | [6] -0.037 | [7] 0.017 | [8] 0.036 | [9] 0.016 | [10] -0.021 | Nexturastat A -0.007 | vemurafenib 0.038 | [11] -0.007 | [12] 0.025 | givinostat -0.081 | barasertib 0.014

SBDS (UniProt Q9Y3A5)
inactive: IRAK-1-4 Inhibitor I -0.024 | ibrutinib -0.02 | [1] -0.019 | ralimetinib 0.032 | [2] -0.123 | [3] -0.086 | [4] -0.023 | pinometostat 0.003 | [5] -0.017 | [6] 0.037 | [7] 0.006 | [8] -0.075 | [9] 0.031 | [10] 0.042 | Nexturastat A 0.012 | vemurafenib 0.014 | [11] 0.063 | [12] 0.044 | givinostat 0.046 | barasertib 0.083

SCP2 (UniProt P22307)
inactive: IRAK-1-4 Inhibitor I -0.007 | ibrutinib -0.019 | [1] -0.046 | ralimetinib -0.065 | [2] -0.018 | [3] 0.016 | [4] 0.003 | pinometostat -0.067 | [5] -0.009 | [6] 0.016 | [7] -0.027 | [8] 0.005 | [9] -0.006 | [10] 0.028 | Nexturastat A -0.104 | vemurafenib 0.022 | [11] 0.012 | [12] -0.027 | givinostat -0.009 | barasertib -0.005

RTRAF (UniProt Q9Y224)
inactive: IRAK-1-4 Inhibitor I -0.01 | ibrutinib -0.021 | [1] 0.056 | ralimetinib 0 | [2] 0.004 | [3] -0.007 | [4] 0.081 | pinometostat 0.151 | [5] 0.017 | [6] -0.016 | [7] -0.012 | [8] -0.016 | [9] -0.038 | [10] -0.058 | Nexturastat A 0.088 | vemurafenib -0.074 | [11] -0.025 | [12] 0.03 | givinostat 0.009 | barasertib -0.009

SDE2 (UniProt Q6IQ49)
inactive: IRAK-1-4 Inhibitor I 0.006 | ibrutinib 0.003 | [1] 0.057 | ralimetinib -0.029 | [2] 0.022 | [3] 0.025 | [4] -0.002 | pinometostat 0.006 | [5] -0.009 | [6] 0.013 | [7] -0.026 | [8] 0.013 | [9] 0 | [10] 0.012 | Nexturastat A 0.028 | vemurafenib 0.001 | [11] -0.002 | [12] -0.038 | givinostat 0.01 | barasertib -0.01

RTN4 (UniProt Q9NQC3)
inactive: IRAK-1-4 Inhibitor I 0.028 | ibrutinib 0.006 | [1] -0.011 | ralimetinib -0.086 | [2] -0.011 | [3] 0.006 | [4] -0.026 | pinometostat -0.038 | [5] -0.031 | [6] -0.043 | [7] 0.006 | [8] 0.027 | [9] 0.069 | [10] 0.014 | Nexturastat A -0.057 | vemurafenib -0.014 | [11] 0.066 | [12] -0.126 | givinostat 0.022 | barasertib -0.025

RWDD4 (UniProt Q6NW29)
inactive: IRAK-1-4 Inhibitor I -0.069 | ibrutinib 0.034 | [1] -0.081 | ralimetinib 0.014 | [2] 0.01 | [3] -0.115 | [4] -0.006 | pinometostat 0.075 | [5] 0.01 | [6] -0.06 | [7] -0.022 | [8] 0.011 | [9] 0.022 | [10] -0.035 | Nexturastat A 0.133 | vemurafenib -0.003 | [11] 0.05 | [12] 0.051 | givinostat 0.094 | barasertib 0.054

SAR1A (UniProt Q9NR31)
inactive: IRAK-1-4 Inhibitor I 0.042 | ibrutinib -0.023 | [1] 0.069 | ralimetinib 0.014 | [2] -0.093 | [3] 0.051 | [4] -0.018 | pinometostat -0.036 | [5] -0.092 | [6] 0.085 | [7] 0.047 | [8] -0.029 | [9] -0.002 | [10] 0.096 | Nexturastat A -0.018 | vemurafenib 0.036 | [11] 0.009 | [12] 0 | givinostat 0.006 | barasertib 0.076

SAFB isoform 3 (UniProt Q15424)
inactive: IRAK-1-4 Inhibitor I -0.073 | ibrutinib 0.015 | [1] 0.002 | ralimetinib 0.044 | [2] 0.156 | [3] 0.069 | [4] 0.118 | pinometostat 0.152 | [5] 0.002 | [6] -0.123 | [7] -0.108 | [8] 0.086 | [9] 0 | [10] -0.113 | Nexturastat A 0.219 | vemurafenib -0.074 | [11] -0.049 | [12] 0.071 | givinostat 0.102 | barasertib -0.149

SAR1B (UniProt Q9Y6B6)
inactive: IRAK-1-4 Inhibitor I 0.012 | ibrutinib 0.006 | [1] -0.031 | ralimetinib -0.077 | [2] -0.065 | [3] 0.029 | [4] -0.03 | pinometostat -0.033 | [5] -0.092 | [6] 0.162 | [7] 0.078 | [8] -0.035 | [9] 0.005 | [10] 0.015 | Nexturastat A -0.045 | vemurafenib 0.038 | [11] 0.063 | [12] -0.001 | givinostat -0.018 | barasertib 0.038

SCO1 (UniProt O75880)
inactive: IRAK-1-4 Inhibitor I 0.078 | ibrutinib 0.008 | [1] 0 | ralimetinib 0.006 | [2] 0.023 | [3] -0.028 | [4] 0.011 | pinometostat -0.035 | [5] -0.002 | [6] 0.016 | [7] -0.031 | [8] -0.028 | [9] 0.025 | [10] 0.021 | Nexturastat A -0.01 | vemurafenib 0.038 | [11] 0.033 | [12] -0.064 | givinostat 0.05 | barasertib 0.009

Retrieved one by one from above (2):
SAR1B (UniProt Q9Y6B6)
inactive: IRAK-1-4 Inhibitor I 0.012 | ibrutinib 0.006 | [1] -0.031 | ralimetinib -0.077 | [2] -0.065 | [3] 0.029 | [4] -0.03 | pinometostat -0.033 | [5] -0.092 | [6] 0.162 | [7] 0.078 | [8] -0.035 | [9] 0.005 | [10] 0.015 | Nexturastat A -0.045 | vemurafenib 0.038 | [11] 0.063 | [12] -0.001 | givinostat -0.018 | barasertib 0.038

RWDD4 (UniProt Q6NW29)
inactive: IRAK-1-4 Inhibitor I -0.069 | ibrutinib 0.034 | [1] -0.081 | ralimetinib 0.014 | [2] 0.01 | [3] -0.115 | [4] -0.006 | pinometostat 0.075 | [5] 0.01 | [6] -0.06 | [7] -0.022 | [8] 0.011 | [9] 0.022 | [10] -0.035 | Nexturastat A 0.133 | vemurafenib -0.003 | [11] 0.05 | [12] 0.051 | givinostat 0.094 | barasertib 0.054

Continuation:

RTF1 (UniProt Q92541)
inactive: IRAK-1-4 Inhibitor I 0.003 | ibrutinib -0.003 | [1] -0.09 | ralimetinib -0.054 | [2] -0.066 | [3] -0.028 | [4] 0.016 | pinometostat -0.034 | [5] -0.005 | [6] 0.029 | [7] 0.058 | [8] -0.028 | [9] 0 | [10] 0.016 | Nexturastat A -0.106 | vemurafenib 0.039 | [11] 0.033 | [12] -0.019 | givinostat -0.025 | barasertib 0.027

SDF2L1 (UniProt Q9HCN8)
inactive: IRAK-1-4 Inhibitor I -0.017 | ibrutinib -0.02 | [1] 0.04 | ralimetinib 0.016 | [2] -0.002 | [3] 0.013 | [4] -0.005 | pinometostat -0.009 | [5] 0.035 | [6] 0.008 | [7] 0.013 | [8] 0.022 | [9] -0.03 | [10] -0.014 | Nexturastat A 0.042 | vemurafenib 0.006 | [11] -0.035 | [12] -0.082 | givinostat 0.004 | barasertib -0.01

S100P (UniProt P25815)
inactive: IRAK-1-4 Inhibitor I -0.016 | ibrutinib -0.039 | [1] -0.017 | ralimetinib 0.01 | [2] 0.022 | [3] 0.05 | [4] -0.148 | pinometostat -0.139 | [5] -0.021 | [6] 0.315 | [7] -0.069 | [8] -0.029 | [9] 0.087 | [10] 0.01 | Nexturastat A -0.017 | vemurafenib 0.224 | [11] -0.004 | [12] 0.043 | givinostat -0.071 | barasertib 0.133

RYBP (UniProt Q8N488)
inactive: IRAK-1-4 Inhibitor I 0.047 | ibrutinib 0.033 | [1] 0 | ralimetinib -0.042 | [2] 0.105 | [3] 0.075 | [4] 0.051 | pinometostat -0.026 | [5] 0.05 | [6] -0.09 | [7] -0.046 | [8] 0.017 | [9] -0.116 | [10] 0.002 | Nexturastat A 0.02 | vemurafenib 0.032 | [11] -0.062 | [12] 0.022 | givinostat 0.005 | barasertib 0.047

Reference: the supplement of paper PMC10849652
